The source of these data is patent US20180303898A1 (SANFORD BURNHAM PREBYS MEDICAL DISCOVERY INSTITUTE, published 2018).

Results are given in words; binding and its absence hold for the method and conditions named. Some entries that bind do so weakly or less than the wild type.

In assay [1] the target is T1, recombinant 6x-His-tagged p32 protein (p32/p33/gC1qR/HABP1) (UniProt Q07021 74-282).
T1 construct: not shown: 6x-His tag
T1 sequence (looked up): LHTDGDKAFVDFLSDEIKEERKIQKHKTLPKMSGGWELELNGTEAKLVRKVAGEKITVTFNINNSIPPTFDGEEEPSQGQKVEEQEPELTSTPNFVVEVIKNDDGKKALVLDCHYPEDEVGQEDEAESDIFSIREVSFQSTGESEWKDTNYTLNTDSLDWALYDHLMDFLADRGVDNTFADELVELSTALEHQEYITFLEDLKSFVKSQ
In words: fluorescence polarization displacement of FAM-TT1 from p32. In general terms: Fluorescence polarisation rises when a labelled molecule tumbles more slowly, as on binding a larger partner.

For assay [2], the target named is T1, recombinant 6x-His-tagged p32 protein …. Nature of the assay: 1D 1H NMR, 5 µM p32.
For assay [3] the target is unchanged. In words: 1D 1H NMR, 5 µM p32, TT1 at 70 µM; shift of the peak at around -0.3 ppm and a shoulder peak.

B1: LyP-1 peptide (…), unlabeled (peptide)
peptide: CGNKRTRGC
modifications: cyclic 9-amino acid peptide
Regarding B1, in assay [1], the binding entry was “binds”.

B2: TT1 peptide (…), unlabeled (peptide)
peptide: CKRGARSTC
modifications: 9-amino acid cyclic peptide
Regarding B2, the binding entry in assay [2], in assay [1] and in assay [3] was “binds” throughout.
